# Experimental data from patent publication US20040176310A1, “Use of extracts and preparations from iris plants and tectorigenin as medicaments” (priority 2001, published 2004).
# At least one structure is not confirmed: it was looked up by name or label, or the drawing left a doubt.
# Assays:
# rat prostate = test: anti-androgenic action in rat prostate (whole-body model) and human prostate carcinoma cells; details: in-vivo rat prostate whole-body model and human prostate carcinoma cells
# [1] = tested on: human prostate carcinoma cells; test: growth of human prostate carcinoma cells in vitro; assay type: cell-based
# [2] = tested on: uro-genital system; uterus; test: in-vitro and in-vivo experimentation on organselective effect (uro-genital system, uterus)
# [3] = tested on: uterus; hypothalamo-hypophysary axis, cardiovascular system, bone; details: uterus versus hypothalamo-hypophysary axis; cited from earlier work
smiles,measurement,setting,value
COc1c(O)cc2occ(-c3ccc(O)cc3)c(=O)c2c1O [tectorigenin],anti-androgenic action,rat prostate,anti-androgenic action
same,growth of the tumor cells,[1],significantly inhibiting growth
same,effects compared with the whole extract,[2],essentially has the same effects as the whole extract
same,estrogenic effect,[3],estrogenic effect not on the uterus
